# Reference: the supplement of paper PMC8728848
# The other results are listed elsewhere or left out.
# How the values were obtained:
# Test in all cases: glycan array binding signal (z-score within array); higher = stronger binding
# Details in all cases: glycan notation: IUPAC condensed, linker removed
# [1] = molecular target: Neu5Ac(a2-3)Gal(b1-3)[Neu5Ac(a2-6)]GlcNAc(b1-3)[Fuc(a1-3)[Gal(b1-4)]GlcNAc(b1-6)]Gal(b1-4)Glc
# Procedure, shortened: (§1)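 Glycan array data came from 3228 arrays in the Consortium for Functional Glycomics database, and only arrays with an available protein sequence were kept. Glycan names were put into IUPAC-condensed notation, and columns mapping to the same glycan were averaged. The binding signal is a within-array Z-score, averaged across arrays of one protein sequence run at different concentrations or buffers and across linkers. A negative Z-score can be read as non-binding.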
# [2] = molecular target: Neu5Ac(a2-3)Gal(b1-3)]Neu5Ac(a2-3)Gal(b1-4)]GlcNAc
# Procedure, shortened: as §1
# [3] = molecular target: Neu5Ac(a2-3)Gal(b1-4)Glc
# Procedure, shortened: as §1
# [4] = molecular target: Neu5Ac(a2-3)Gal(b1-4)GlcNAc
# Procedure, shortened: as §1
# [5] = molecular target: Neu5Ac(a2-3)Gal(b1-4)GlcNAc(b1-2)Man
# Procedure, shortened: as §1
# [6] = molecular target: Neu5Ac(a2-3)Gal(b1-4)GlcNAc(b1-2)Man(a1-3)[GlcNAc(b1-4)][Neu5Ac(a2-3)Gal(b1-4)GlcNAc(b1-2)Man(a1-6)]Man(b1-4)GlcNAc(b1-4)GlcNAc
# Procedure, shortened: as §1
# [7] = molecular target: Neu5Ac(a2-3)Gal(b1-4)GlcNAc(b1-2)Man(a1-3)[Neu5Ac(a2-3)Gal(b1-4)GlcNAc(b1-2)Man(a1-6)]Man(b1-4)GlcNAc(b1-4)GlcNAc
# Procedure, shortened: as §1
# [8] = molecular target: Neu5Ac(a2-3)Gal(b1-4)GlcNAc(b1-2)Man(a1-3)[Neu5Ac(a2-3)Gal(b1-4)GlcNAc(b1-2)Man(a1-6)]Man(b1-4)GlcNAc(b1-4)[Fuc(a1-6)]GlcNAc
# Procedure, shortened: as §1
# [9] = molecular target: Neu5Ac(a2-3)Gal(b1-4)GlcNAc(b1-2)Man(a1-3)[Neu5Ac(a2-6)Gal(b1-4)GlcNAc(b1-2)Man(a1-6)]Man(b1-4)GlcNAc(b1-4)GlcNAc
# Procedure, shortened: as §1
# [10] = molecular target: Neu5Ac(a2-3)Gal(b1-4)GlcNAc(b1-2)[Neu5Ac(a2-3)Gal(b1-4)GlcNAc(b1-4)]Man(a1-3)[GlcNAc(b1-4)][Neu5Ac(a2-3)Gal(b1-4)GlcNAc(b1-2)[Neu5Ac(a2-3)Gal(b1-4)GlcNAc(b1-6)]Man(a1-6)]Man(b1-4)GlcNAc(b1-4)GlcNAc
# Procedure, shortened: as §1
# [11] = molecular target: Neu5Ac(a2-3)Gal(b1-4)GlcNAc(b1-2)[Neu5Ac(a2-3)Gal(b1-4)GlcNAc(b1-4)]Man(a1-3)[GlcNAc(b1-4)][Neu5Ac(a2-3)Gal(b1-4)GlcNAc(b1-4)Man(a1-6)]Man(b1-4)GlcNAc(b1-4)GlcNAc
# Procedure, shortened: as §1
# [12] = molecular target: Neu5Ac(a2-3)Gal(b1-4)GlcNAc(b1-2)[Neu5Ac(a2-3)Gal(b1-4)GlcNAc(b1-6)]Man(a1-6)[Neu5Ac(a2-3)Gal(b1-4)GlcNAc(b1-2)Man(a1-3)][GlcNAc(b1-4)]Man(b1-4)GlcNAc(b1-4)GlcNAc
# Procedure, shortened: as §1
# [13] = molecular target: Neu5Ac(a2-3)Gal(b1-4)GlcNAc(b1-3)Gal
# Procedure, shortened: as §1
# [14] = molecular target: Neu5Ac(a2-3)Gal(b1-4)GlcNAc(b1-3)Gal(b1-3)GlcNAc
# Procedure, shortened: as §1
# [15] = molecular target: Neu5Ac(a2-3)Gal(b1-4)GlcNAc(b1-3)Gal(b1-4)GlcNAc
# Procedure, shortened: as §1
# [16] = molecular target: Neu5Ac(a2-3)Gal(b1-4)GlcNAc(b1-3)Gal(b1-4)GlcNAc(b1-2)Man(a1-3)[Neu5Ac(a2-3)Gal(b1-4)GlcNAc(b1-3)Gal(b1-4)GlcNAc(b1-2)Man(a1-6)]Man(b1-4)GlcNAc(b1-4)GlcNAc
# Procedure, shortened: as §1
# [17] = molecular target: Neu5Ac(a2-3)Gal(b1-4)GlcNAc(b1-3)Gal(b1-4)GlcNAc(b1-3)Gal(b1-4)GlcNAc
# Procedure, shortened: as §1
# [18] = molecular target: Neu5Ac(a2-3)Gal(b1-4)GlcNAc(b1-3)Gal(b1-4)GlcNAc(b1-3)Gal(b1-4)GlcNAc(b1-2)Man(a1-3)[Neu5Ac(a2-3)Gal(b1-4)GlcNAc(b1-3)Gal(b1-4)GlcNAc(b1-3)Gal(b1-4)GlcNAc(b1-2)Man(a1-6)]GalNAc
# Procedure, shortened: as §1
# [19] = molecular target: Neu5Ac(a2-3)Gal(b1-4)GlcNAc(b1-3)Gal(b1-4)GlcNAc(b1-3)GalNAc
# Procedure, shortened: as §1
# [20] = molecular target: Neu5Ac(a2-3)Gal(b1-4)GlcNAc(b1-3)Gal(b1-4)GlcNAc(b1-3)[Neu5Ac(a2-3)Gal(b1-4)GlcNAc(b1-3)Gal(b1-4)GlcNAc(b1-6)]GalNAc
# Procedure, shortened: as §1
# [21] = molecular target: Neu5Ac(a2-3)Gal(b1-4)GlcNAc(b1-3)Gal(b1-4)GlcNAc(b1-6)[Gal(b1-3)]GalNAc
# Procedure, shortened: as §1
# [22] = molecular target: Neu5Ac(a2-3)Gal(b1-4)GlcNAc(b1-3)Gal(b1-4)[Fuc(a1-3)]GlcNAc
# Procedure, shortened: as §1
# [23] = molecular target: Neu5Ac(a2-3)Gal(b1-4)GlcNAc(b1-3)GalNAc
# Procedure, shortened: as §1
# [24] = molecular target: Neu5Ac(a2-3)Gal(b1-4)GlcNAc(b1-3)[Neu5Ac(a2-3)Gal(b1-4)GlcNAc(b1-6)]GalNAc
# Procedure, shortened: as §1
# [25] = molecular target: Neu5Ac(a2-3)Gal(b1-4)GlcNAc(b1-6)GalNAc
# Procedure, shortened: as §1
# [26] = molecular target: Neu5Ac(a2-3)Gal(b1-4)GlcNAc(b1-6)[Gal(b1-3)]GalNAc
# Procedure, shortened: as §1
# [27] = molecular target: Neu5Ac(a2-3)Gal(b1-4)GlcNAc(b1-6)[Neu5Ac(a2-3)Gal(b1-3)]GalNAc
# Procedure, shortened: as §1
# [28] = molecular target: Neu5Ac(a2-3)Gal(b1-4)GlcNAc6S
# Procedure, shortened: as §1
# [29] = molecular target: Neu5Ac(a2-3)Gal(b1-4)[Fuc(a1-3)]GlcNAc
# Procedure, shortened: as §1
# [30] = molecular target: Neu5Ac(a2-3)Gal(b1-4)[Fuc(a1-3)]GlcNAc(b1-2)Man
# Procedure, shortened: as §1
# [31] = molecular target: Neu5Ac(a2-3)Gal(b1-4)[Fuc(a1-3)]GlcNAc(b1-3)Gal
# Procedure, shortened: as §1
# [32] = molecular target: Neu5Ac(a2-3)Gal(b1-4)[Fuc(a1-3)]GlcNAc(b1-3)Gal(b1-4)GlcNAc
# Procedure, shortened: as §1
# [33] = molecular target: Neu5Ac(a2-3)Gal(b1-4)[Fuc(a1-3)]GlcNAc(b1-3)Gal(b1-4)[Fuc(a1-3)]GlcNAc(b1-3)Gal(b1-4)[Fuc(a1-3)]GlcNAc
# Procedure, shortened: as §1
# [34] = molecular target: Neu5Ac(a2-3)Gal(b1-4)[Fuc(a1-3)]GlcNAc(b1-3)GalNAc
# Procedure, shortened: as §1
# [35] = molecular target: Neu5Ac(a2-3)Gal(b1-4)[Fuc(a1-3)]GlcNAc(b1-6)[Gal(b1-3)]GalNAc
# Procedure, shortened: as §1
# [36] = molecular target: Neu5Ac(a2-3)Gal(b1-4)[Fuc(a1-3)]GlcNAc(b1-6)[Neu5Ac(a2-3)Gal(b1-3)]GalNAc
# Procedure, shortened: as §1
# [37] = molecular target: Neu5Ac(a2-3)Gal(b1-4)[Fuc(a1-3)]GlcNAc6S
# Procedure, shortened: as §1
# [38] = molecular target: Neu5Ac(a2-3)Gal6S(b1-4)GlcNAc
# Procedure, shortened: as §1
binder,measurement,setting,value
Epa19 (Candida glabrata) (protein) MGSSHHHHHHSSGLVPRGSHMASSKDPTRFPIGCSPQVLKTQPGLAVKLYSYGHPVPGCSYITYQYPDFPRSGYKKERKLADITGVNGKIDIDLKPNDPCRVLTGHLPSNYNYPDTLTYTNFTMILYGYFQPKVTGYHTFNLEADDLLFMNLGAGNAFDCCKAESTLDNFGNYQSYSLWGSDYAKANITVFLVSGVYYPIRLFYVNRDNNAVIDFSFTTEFDKEKVHDFTSYFFSASDGEQCPGSV,glycan array binding signal (z-score),[1],-0.06
same,glycan array binding signal (z-score),[2],1.09
same,glycan array binding signal (z-score),[3],0.954
same,glycan array binding signal (z-score),[4],-0.276
same,glycan array binding signal (z-score),[5],1.93
same,glycan array binding signal (z-score),[6],-0.125
same,glycan array binding signal (z-score),[7],-0.563
same,glycan array binding signal (z-score),[8],-0.489
same,glycan array binding signal (z-score),[9],0.269
same,glycan array binding signal (z-score),[10],0.102
same,glycan array binding signal (z-score),[11],-0.197
same,glycan array binding signal (z-score),[12],-1.06
same,glycan array binding signal (z-score),[13],-0.41
same,glycan array binding signal (z-score),[14],-0.403
same,glycan array binding signal (z-score),[15],0.186
same,glycan array binding signal (z-score),[16],0.171
same,glycan array binding signal (z-score),[17],0.026
same,glycan array binding signal (z-score),[18],1.5
same,glycan array binding signal (z-score),[19],0.273
same,glycan array binding signal (z-score),[20],0.493
same,glycan array binding signal (z-score),[21],-0.117
same,glycan array binding signal (z-score),[22],-0.678
same,glycan array binding signal (z-score),[23],0.601
same,glycan array binding signal (z-score),[24],0.645
same,glycan array binding signal (z-score),[25],-0.594
same,glycan array binding signal (z-score),[26],-0.019
same,glycan array binding signal (z-score),[27],-0.685
same,glycan array binding signal (z-score),[28],-0.795
same,glycan array binding signal (z-score),[29],-0.341
same,glycan array binding signal (z-score),[30],-0.549
same,glycan array binding signal (z-score),[31],0.221
same,glycan array binding signal (z-score),[32],1.79
same,glycan array binding signal (z-score),[33],-0.375
same,glycan array binding signal (z-score),[34],3.04
same,glycan array binding signal (z-score),[35],1.34
same,glycan array binding signal (z-score),[36],0.283
same,glycan array binding signal (z-score),[37],-0.258
same,glycan array binding signal (z-score),[38],-0.438

# Three records drawn at random from the list so far:
binder,measurement,setting,value
Epa19 (Candida glabrata) (protein) MGSSHHHHHHSSGLVPRGSHMASSKDPTRFPIGCSPQVLKTQPGLAVKLYSYGHPVPGCSYITYQYPDFPRSGYKKERKLADITGVNGKIDIDLKPNDPCRVLTGHLPSNYNYPDTLTYTNFTMILYGYFQPKVTGYHTFNLEADDLLFMNLGAGNAFDCCKAESTLDNFGNYQSYSLWGSDYAKANITVFLVSGVYYPIRLFYVNRDNNAVIDFSFTTEFDKEKVHDFTSYFFSASDGEQCPGSV,glycan array binding signal (z-score),[29],-0.341
same,glycan array binding signal (z-score),[1],-0.06
same,glycan array binding signal (z-score),[6],-0.125
